This is an account of results in publication doi:10.1101/259259.

Sequences of proteins named here, by UniProt entry; tags and fusion partners are left off. A change or cut given only in a name is not applied to a line headed by its entry. Residues count along the entry.
UniProt Q9QYB1: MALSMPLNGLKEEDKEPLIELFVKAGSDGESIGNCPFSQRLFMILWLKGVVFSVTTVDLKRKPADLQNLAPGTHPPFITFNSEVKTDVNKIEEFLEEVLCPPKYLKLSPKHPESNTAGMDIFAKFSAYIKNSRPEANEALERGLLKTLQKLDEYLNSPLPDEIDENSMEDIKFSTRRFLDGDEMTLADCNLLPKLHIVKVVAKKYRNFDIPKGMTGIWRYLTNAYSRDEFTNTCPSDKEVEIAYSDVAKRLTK
UniProt P07737, residues 2-140: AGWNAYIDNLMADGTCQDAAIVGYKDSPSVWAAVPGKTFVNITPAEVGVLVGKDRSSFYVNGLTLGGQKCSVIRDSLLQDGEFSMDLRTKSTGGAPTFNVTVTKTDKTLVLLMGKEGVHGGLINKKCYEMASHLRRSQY
UniProt Q9Y696, residues 1-251: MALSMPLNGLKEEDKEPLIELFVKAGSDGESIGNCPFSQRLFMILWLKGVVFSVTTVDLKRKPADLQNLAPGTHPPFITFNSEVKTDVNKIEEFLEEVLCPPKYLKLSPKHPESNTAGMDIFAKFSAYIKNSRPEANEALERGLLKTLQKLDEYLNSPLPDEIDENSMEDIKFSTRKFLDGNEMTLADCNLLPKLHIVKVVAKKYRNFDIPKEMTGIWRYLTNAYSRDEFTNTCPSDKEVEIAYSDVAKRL

For one assay, the target named is 3XFLAG-CLIC4 C35A (UniProt Q9QYB1). Put plainly: co-IP.
Another assay has as its target 3XFLAG-CLIC4 wild type (UniProt Q9QYB1). Put plainly: co-IP.
The next assay addresses GST-Profilin-1 (human) (UniProt P07737). Briefly: pull-down.
For a further assay, the target named is GST-CLIC4 wt (UniProt Q9Y696). Put plainly: pull-down.

These are yes or no findings as the source states them, for the method shown. For some assays here: In cells and extracts the contact can be indirect. Some results given as binding are weak or reduced against the parent protein; the word gives no strength.

Turning to GFP-PFN1 (from UniProt P07737 2-140), the values for the binding result with 3XFLAG-CLIC4 C35A and in the assay with 3XFLAG-CLIC4 wild type were “no binding” and “binds”, respectively.

As for “recombinant CLIC4 wt (from UniProt Q9Y696 1-251)”, the binding entry with GST-Profilin-1 (human) was “binds”.

On to “YFP-CLIC4 (wt) (from UniProt Q9Y696 1-251)”, for which the binding entry in the assay with GST-Profilin-1 (human) was “binds”.

With Profilin-1 (from UniProt P07737 2-140), the binding result with GST-CLIC4 wt is listed as “binds”.
